PMC9813392

B1: Noc3p, full length, yeast two-hybrid fusion (BD-NOC3 and AD-Noc3p) (protein, UniProt Q07896 1-663)
chain: MAKRNRSQFRIQERTAKKRKHEDSLLEGNVFQNAPEDMDENTIYSAKGSSWDEEEQDYEMVPRKNRSDTSNLVEGLPIKVNGKVERKLHKAQEKPKDDDEEDEDSNDSSEDDEGPNEEQEAEAKEDEPDTEEKILQLKEDIADLVTKVMEEPEENTAALGRLCKMVESKNPNTCKFSMLALVPVFKSIIPGYRIRPLTETEKKEKVSKEVSKLRNFEQALVYNYKNYVGRLQSLSKTPSNAAPIQVSLGILATQAAKELISTASHFNFRTDIFTLLLRRICKPRISTDPTSIQIIQTFETLLNEDEEGSISFEILRIFNKILKTRNFNIEESVLNMLLSLDVLHDYDPNTKLKGNVSAPKLKKKDRVHLSKKQRKARKEMQQIEEEMRNAEQAVSAEERERNQSEILKIVFTIYLNILKNNAKTLIGSVLEGLTKFGNMANFDLLGDFLEVMKELISDTEFDNLSSAEVRKALLCIVSAFSLISNTQYMKVNVDLSKFVDGLYALLPYICLDADIELSYRSLRLADPLNNEIIKPSVNVSTKAELLLKALDHVFFRSKSGTKERATAFTKRLYMCISHTPEKTSIAILKFIDKLMNRYPEISGLYSSEDRIGNGHFIMEADNPSRSNPEAATLWDNALLEKHYCPVVTKGLRSLSSRSKECSK
B2: Orc2p, yeast two-hybrid fusion (AD-Orc2p) (protein, UniProt P32833 1-620)
chain: MLNGEDFVEHNDILSSPAKSRNVTPKRVDPHGERQLRRIHSSKKNLLERISLVGNERKNTSPDPALKPKTPSKAPRKRGRPRKIQEELTDRIKKDEKDTISSKKKRKLDKDTSGNVNEESKTSNNKQVMEKTGIKEKREREKIQVATTTYEDNVTPQTDDNFVSNSPEPPEPATPSKKSLTTNHDFTSPLKQIIMNNLKEYKDSTSPGKLTLSRNFTPTPVPKNKKLYQTSETKSASSFLDTFEGYFDQRKIVRTNAKSRHTMSMAPDVTREEFSLVSNFFNENFQKRPRQKLFEIQKKMFPQYWFELTQGFSLLFYGVGSKRNFLEEFAIDYLSPKIAYSQLAYENELQQNKPVNSIPCLILNGYNPSCNYRDVFKEITDLLVPAELTRSETKYWGNHVILQIQKMIDFYKNQPLDIKLILVVHNLDGPSIRKNTFQTMLSFLSVIRQIAIVASTDHIYAPLLWDNMKAQNYNFVFHDISNFEPSTVESTFQDVMKMGKSDTSSGAEGAKYVLQSLTVNSKKMYKLLIETQMQNMGNLSANTGPKRGTQRTGVELKLFNHLCAADFIASNEIALRSMLREFIEHKMANITKNNSGMEIIWVPYTYAELEKLLKTVLNTL

Molecular target: Noc3p with the C-terminal NOC domain deleted, yeast two-hybrid fusion (S. cerevisiae) (UniProt Q07896)
Test: two-hybrid; Matchmaker system III (Clontech); BD- and AD-fusion proteins; growth on SCM-Trp-Leu-His plates; empty BD or AD vector as negative controls

Row | Binder | binding
1 | B1 | binds
2 | B2 | binds

No constants are given. Whether binding was seen depends on the method and setting. A result given as binding can be weak or reduced; the word gives no strength. Where a sequence is shown, tags or fusion partners need not be part of it.
